Results from publication PMC9475459.
Results are given in words; binding and its absence hold for the method and conditions named. Binding seen in cells or lysates may run through a third protein. Some binding calls cover weakened binding; strength is not graded here.

Amino acid sequences for entries named in this document (tags omitted).
UniProt Q92736: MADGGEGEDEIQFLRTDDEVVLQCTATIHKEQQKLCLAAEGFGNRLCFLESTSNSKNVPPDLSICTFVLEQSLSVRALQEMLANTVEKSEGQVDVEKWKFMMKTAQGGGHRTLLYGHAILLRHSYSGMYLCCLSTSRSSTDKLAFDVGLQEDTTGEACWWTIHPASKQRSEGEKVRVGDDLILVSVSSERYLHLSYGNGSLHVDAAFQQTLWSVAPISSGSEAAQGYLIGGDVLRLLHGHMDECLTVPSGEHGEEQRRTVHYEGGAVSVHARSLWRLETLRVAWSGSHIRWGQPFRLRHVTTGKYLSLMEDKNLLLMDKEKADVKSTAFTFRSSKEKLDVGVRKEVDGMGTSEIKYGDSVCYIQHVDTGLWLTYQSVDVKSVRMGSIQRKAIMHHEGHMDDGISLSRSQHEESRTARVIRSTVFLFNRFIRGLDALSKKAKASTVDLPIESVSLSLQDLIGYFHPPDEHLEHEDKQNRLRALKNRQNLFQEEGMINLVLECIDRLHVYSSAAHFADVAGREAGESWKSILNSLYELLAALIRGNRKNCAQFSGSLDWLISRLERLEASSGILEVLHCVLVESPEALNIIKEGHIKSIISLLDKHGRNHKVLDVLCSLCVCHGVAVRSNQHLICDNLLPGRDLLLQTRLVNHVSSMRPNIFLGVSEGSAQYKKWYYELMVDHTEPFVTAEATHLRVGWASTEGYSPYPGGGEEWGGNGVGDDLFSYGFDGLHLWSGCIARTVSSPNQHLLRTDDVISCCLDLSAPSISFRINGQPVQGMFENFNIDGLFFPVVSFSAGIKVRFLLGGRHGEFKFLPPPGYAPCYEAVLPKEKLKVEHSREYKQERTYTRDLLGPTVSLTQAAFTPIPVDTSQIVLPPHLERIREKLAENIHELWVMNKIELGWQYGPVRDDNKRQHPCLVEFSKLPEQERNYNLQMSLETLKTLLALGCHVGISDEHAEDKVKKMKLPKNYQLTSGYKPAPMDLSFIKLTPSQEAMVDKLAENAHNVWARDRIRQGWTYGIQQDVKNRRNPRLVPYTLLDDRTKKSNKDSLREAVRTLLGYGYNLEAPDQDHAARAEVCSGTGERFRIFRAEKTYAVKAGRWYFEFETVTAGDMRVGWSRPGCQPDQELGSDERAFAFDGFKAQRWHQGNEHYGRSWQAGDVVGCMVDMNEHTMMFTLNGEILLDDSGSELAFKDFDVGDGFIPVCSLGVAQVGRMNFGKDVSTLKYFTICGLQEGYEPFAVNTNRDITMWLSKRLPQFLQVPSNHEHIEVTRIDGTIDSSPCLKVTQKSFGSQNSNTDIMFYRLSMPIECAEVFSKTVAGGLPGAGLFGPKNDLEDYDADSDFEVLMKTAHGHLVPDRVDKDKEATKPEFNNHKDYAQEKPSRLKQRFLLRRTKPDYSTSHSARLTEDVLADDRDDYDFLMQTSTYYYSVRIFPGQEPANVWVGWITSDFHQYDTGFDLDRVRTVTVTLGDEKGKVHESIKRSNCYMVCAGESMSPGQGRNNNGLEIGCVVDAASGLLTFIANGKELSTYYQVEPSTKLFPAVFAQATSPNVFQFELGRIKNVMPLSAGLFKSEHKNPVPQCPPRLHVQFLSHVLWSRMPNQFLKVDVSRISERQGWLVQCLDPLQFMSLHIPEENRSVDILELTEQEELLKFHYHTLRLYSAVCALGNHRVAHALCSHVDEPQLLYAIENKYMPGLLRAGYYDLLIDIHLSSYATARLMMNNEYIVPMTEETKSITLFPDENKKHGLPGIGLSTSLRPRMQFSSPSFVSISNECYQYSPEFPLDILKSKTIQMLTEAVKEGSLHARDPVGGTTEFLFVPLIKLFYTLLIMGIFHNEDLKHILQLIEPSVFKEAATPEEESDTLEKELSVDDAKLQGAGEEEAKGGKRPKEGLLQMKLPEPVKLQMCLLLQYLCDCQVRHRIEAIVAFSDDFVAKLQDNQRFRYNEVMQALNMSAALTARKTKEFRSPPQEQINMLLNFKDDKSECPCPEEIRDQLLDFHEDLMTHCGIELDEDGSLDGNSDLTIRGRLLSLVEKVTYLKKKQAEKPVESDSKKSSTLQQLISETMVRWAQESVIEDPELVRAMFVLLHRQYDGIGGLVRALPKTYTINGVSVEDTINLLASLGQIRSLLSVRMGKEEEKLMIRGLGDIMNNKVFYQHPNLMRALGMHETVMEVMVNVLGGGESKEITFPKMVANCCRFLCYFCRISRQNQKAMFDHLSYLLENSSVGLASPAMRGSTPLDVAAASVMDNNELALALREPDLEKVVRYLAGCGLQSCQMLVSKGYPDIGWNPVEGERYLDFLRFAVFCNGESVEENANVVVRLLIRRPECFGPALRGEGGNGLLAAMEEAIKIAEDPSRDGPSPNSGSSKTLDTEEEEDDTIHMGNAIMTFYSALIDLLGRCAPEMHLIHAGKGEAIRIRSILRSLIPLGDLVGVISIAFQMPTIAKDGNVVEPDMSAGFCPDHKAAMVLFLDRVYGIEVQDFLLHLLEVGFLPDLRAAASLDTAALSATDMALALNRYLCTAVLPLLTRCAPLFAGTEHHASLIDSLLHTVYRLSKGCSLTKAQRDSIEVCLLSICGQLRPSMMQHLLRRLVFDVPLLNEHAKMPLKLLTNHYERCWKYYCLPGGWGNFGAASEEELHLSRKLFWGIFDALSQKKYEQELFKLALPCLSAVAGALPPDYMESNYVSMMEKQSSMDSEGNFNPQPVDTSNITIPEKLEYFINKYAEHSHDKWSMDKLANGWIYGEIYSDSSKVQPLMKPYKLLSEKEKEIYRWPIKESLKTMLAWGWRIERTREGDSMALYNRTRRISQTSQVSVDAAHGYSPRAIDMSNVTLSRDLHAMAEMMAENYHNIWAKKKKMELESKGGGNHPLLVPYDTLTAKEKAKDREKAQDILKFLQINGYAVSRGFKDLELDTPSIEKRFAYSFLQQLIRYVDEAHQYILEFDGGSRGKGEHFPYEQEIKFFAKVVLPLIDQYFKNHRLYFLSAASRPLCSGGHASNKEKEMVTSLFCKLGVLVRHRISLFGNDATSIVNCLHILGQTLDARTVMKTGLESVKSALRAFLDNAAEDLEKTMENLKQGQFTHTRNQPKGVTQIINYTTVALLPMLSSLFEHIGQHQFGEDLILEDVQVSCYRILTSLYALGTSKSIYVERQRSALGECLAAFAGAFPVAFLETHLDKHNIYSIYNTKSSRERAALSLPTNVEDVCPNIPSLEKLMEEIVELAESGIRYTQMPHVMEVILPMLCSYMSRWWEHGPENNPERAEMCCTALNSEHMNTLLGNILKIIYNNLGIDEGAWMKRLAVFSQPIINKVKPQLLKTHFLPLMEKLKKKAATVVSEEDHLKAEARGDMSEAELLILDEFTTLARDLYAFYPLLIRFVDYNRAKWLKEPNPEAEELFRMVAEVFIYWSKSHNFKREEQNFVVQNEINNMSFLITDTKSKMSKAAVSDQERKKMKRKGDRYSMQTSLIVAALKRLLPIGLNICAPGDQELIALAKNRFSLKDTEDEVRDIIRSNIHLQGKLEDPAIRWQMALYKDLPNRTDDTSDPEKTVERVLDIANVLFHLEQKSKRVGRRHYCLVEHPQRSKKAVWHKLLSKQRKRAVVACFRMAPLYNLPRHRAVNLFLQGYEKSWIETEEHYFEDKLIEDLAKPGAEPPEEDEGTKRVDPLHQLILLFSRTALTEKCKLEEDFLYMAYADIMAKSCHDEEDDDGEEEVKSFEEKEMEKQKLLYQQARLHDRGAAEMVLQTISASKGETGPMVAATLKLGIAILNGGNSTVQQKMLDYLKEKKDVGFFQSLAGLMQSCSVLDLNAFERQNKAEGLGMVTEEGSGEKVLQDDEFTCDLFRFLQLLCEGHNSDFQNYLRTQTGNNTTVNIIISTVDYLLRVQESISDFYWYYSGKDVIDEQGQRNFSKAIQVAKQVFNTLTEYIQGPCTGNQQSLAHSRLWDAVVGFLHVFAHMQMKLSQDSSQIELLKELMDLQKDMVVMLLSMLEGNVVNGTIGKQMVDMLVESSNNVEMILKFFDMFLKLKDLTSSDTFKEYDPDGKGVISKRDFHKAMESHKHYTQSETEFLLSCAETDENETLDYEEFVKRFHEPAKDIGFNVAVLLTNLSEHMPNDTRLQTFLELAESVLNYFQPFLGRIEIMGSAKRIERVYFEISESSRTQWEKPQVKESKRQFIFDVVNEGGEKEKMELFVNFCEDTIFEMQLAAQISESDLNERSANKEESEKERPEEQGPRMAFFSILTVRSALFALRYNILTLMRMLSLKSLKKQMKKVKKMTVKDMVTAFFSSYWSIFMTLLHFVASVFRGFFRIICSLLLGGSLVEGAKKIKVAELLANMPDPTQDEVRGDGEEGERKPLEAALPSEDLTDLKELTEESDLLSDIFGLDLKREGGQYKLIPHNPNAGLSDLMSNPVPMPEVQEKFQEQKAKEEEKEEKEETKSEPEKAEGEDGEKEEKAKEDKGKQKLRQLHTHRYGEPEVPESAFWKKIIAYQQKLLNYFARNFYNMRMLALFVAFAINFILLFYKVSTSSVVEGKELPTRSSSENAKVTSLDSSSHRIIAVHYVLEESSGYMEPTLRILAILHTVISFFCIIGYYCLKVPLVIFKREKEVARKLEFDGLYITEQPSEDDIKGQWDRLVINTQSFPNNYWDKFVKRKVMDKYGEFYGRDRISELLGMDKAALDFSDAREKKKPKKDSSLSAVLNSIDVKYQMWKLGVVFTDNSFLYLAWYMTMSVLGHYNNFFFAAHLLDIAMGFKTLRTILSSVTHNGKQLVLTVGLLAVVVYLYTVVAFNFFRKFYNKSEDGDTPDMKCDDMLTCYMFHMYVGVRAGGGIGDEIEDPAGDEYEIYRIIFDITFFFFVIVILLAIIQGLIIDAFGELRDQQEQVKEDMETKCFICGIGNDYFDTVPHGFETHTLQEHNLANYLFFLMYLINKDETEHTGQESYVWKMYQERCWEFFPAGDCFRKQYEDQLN
UniProt Q00987: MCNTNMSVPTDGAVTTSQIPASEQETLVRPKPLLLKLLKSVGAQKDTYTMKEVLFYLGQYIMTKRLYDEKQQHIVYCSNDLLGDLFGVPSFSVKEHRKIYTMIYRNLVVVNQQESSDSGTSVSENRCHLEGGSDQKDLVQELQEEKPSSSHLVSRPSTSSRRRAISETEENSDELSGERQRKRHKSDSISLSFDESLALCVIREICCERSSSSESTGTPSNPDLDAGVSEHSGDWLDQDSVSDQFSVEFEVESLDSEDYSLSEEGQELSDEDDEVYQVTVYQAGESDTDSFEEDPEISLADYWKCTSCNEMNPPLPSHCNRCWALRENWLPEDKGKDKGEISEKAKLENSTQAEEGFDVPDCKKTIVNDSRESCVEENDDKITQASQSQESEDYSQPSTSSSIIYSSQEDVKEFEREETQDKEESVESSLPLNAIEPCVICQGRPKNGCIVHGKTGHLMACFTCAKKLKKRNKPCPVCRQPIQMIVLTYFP

Target: RYR2 (human (endogenous in YES2 and KYSE30/KYSE150)) (UniProt Q92736)
Test: co-IP; endogenous proteins; Protein A/G magnetic beads with anti-RYR2 antibody or control IgG, 4 °C 1 h; cell extracts added, 4 °C 12 h; western blot for MDM2

MDM2 (from UniProt Q00987 1-491)
binding: binds
